# Experimental data from PubChem BioAssay AID540256 (National Center for Advancing Translational Sciences (NCATS), 2011).
# Hit rate of the full screen: of about 300,000 compounds, about 3,700 (1.2%) were called active. The inconclusive results got no clear call from the source; some entries with a clear call stand among them for comparison. The call rests on the fitted dose curve; tested in HEK293 cells. A potency beside an inconclusive call is a rough fit, not a confirmed value.
# Assay: qHTS for Inhibitors of binding or entry into cells for Lassa Virus; further: nearly all actives have a fitted effect of over 50% in size
# Conditions: Lassa virus pseudotype entry inhibition, cell reporter; series mostly up to 37.9 µM
# Potency means the concentration at half of the fitted maximal effect.
row,SMILES,Potency
1,CCc1nnc(NC(=O)c2ccc(S(=O)(=O)N3CCCc4ccccc43)cc2)o1,"inconclusive: 29.1 µM [inhibitor, single point]"
2,COC(=O)c1ccc(CSc2nc3c([nH]c4ccccc43)c(=O)n2-c2ccc(F)cc2)o1,"inconclusive: 1.58 µM [inhibitor, partial curve, poor fit]"
3,CC(=O)OCC(=O)Nc1ccc(SC(F)F)cc1,inactive
4,O=S(=O)(NNC(=S)NCC1CCCO1)c1cc(Cl)ccc1Cl (centres undefined),"inconclusive: 0.708 µM [activator, single point]"
5,CC1(C)S[C@@H]2[C@H](NC(=O)[C@H](N)c3ccc(O)cc3)C(=O)N2[C@H]1C(=O)O,inactive
6,CC(C)CC1(C)NC(=O)N(Cc2cc([N+](=O)[O-])cc3c2OCOC3)C1=O (centres undefined),inactive
7,COc1ccc(/C=C2\COc3ccccc3C2=O)cc1OC,"inconclusive: 22.4 µM [inhibitor, single point]"
8,CC(=O)Nc1ccc(C=CC=Cc2cccc([N+](=O)[O-])c2)cc1,"inconclusive: 22.4 µM [inhibitor, single point]"
9,O=C(Nc1ccc(Cl)cc1)C1C2CCC3C(CCC21)C3(Cl)Cl (centres undefined),"inconclusive: 15.8 µM [inhibitor, single point]"
10,CC(C)(C)c1cc(C(=O)N/N=C/c2ccc([N+](=O)[O-])s2)n[nH]1,"inconclusive: 11.2 µM [inhibitor, partial curve, poor fit]"
11,CCS(=O)(=O)N1CCc2cc(C(=O)N3CCN(c4ccc(OC)cc4)CC3)ccc21,"inconclusive: 6.31 µM [inhibitor, full curve]"
12,COc1ccc(C=CC(=O)c2cc(O)ccc2O)cc1,"inconclusive: 3.16 µM [inhibitor, single point]"
13,COC(=O)c1ccc(COc2ccccc2/C=C(\C#N)C(=O)Nc2c(C)cccc2C)cc1,"inconclusive: 11.6 µM [inhibitor, partial curve]"
14,COc1ccc(-c2cc(C(F)(F)F)nc(SCC(=O)N3CCCCC3)n2)cc1OC,inactive
15,COc1cccc(C(=O)Nc2ccc(NC(=O)C3CC3)cn2)c1,"inconclusive: 5.01 µM [activator, single point]"
16,c1ccc(Oc2ccc(Nc3ncc(-c4ccccc4)o3)cc2)cc1,active: 0.25 µM
17,C=CCOC(=O)NC(c1ccc(F)c(F)c1)C(C(=O)CCl)C(=O)OC (centres undefined),"inconclusive: 2.37 µM [inhibitor, single point]"
18,CNC(=O)c1ccc2nc(CCc3ccccc3)oc2c1,inactive
19,C=C(C)C1CC=C(C)/C(=N\NC(=S)Nc2ccc(C)cc2)C1 (centres undefined),active: 12.6 µM

# Quoted at random: two compounds from above
row,SMILES,Potency
1,CCc1nnc(NC(=O)c2ccc(S(=O)(=O)N3CCCc4ccccc43)cc2)o1,"inconclusive: 29.1 µM [inhibitor, single point]"
13,COC(=O)c1ccc(COc2ccccc2/C=C(\C#N)C(=O)Nc2c(C)cccc2C)cc1,"inconclusive: 11.6 µM [inhibitor, partial curve]"
